This is one part of the list.
System: Caenorhabditis elegans N2
Assay: aldicarb interaction hit call (worm growth perturbed in combination with 10 uM aldicarb in both replicates, no effect as single agent) (binary (1 = interacts)); higher = interacts with aldicarb (growth perturbed)
Conditions: first compound 1.5 µM; aldicarb concentration 10 µM; 6 days; 20 °C

How did the “aldicarb interaction hit call” value turn out when `CC1=C(C(=O)OC(C)C)C(c2ccc(Cl)cc2)NC(S)=N1` (stereo unspecified) [wact-495] + CNC(=O)O/N=C/C(C)(C)SC [aldicarb] was run?
Its value is inactive: 0.

How did the “aldicarb interaction hit call” value turn out when `c1ccc(OCc2nc(-c3ccncc3)no2)cc1` [wact-455] + CNC(=O)O/N=C/C(C)(C)SC [aldicarb] was run?
Its value is inactive: 0.

With `FC(F)(F)c1cccc(Cc2noc(CN3CCC(c4ccncc4)CC3)n2)c1` [wact-263] + CNC(=O)O/N=C/C(C)(C)SC [aldicarb] as the compound, how does the “aldicarb interaction hit call” value read?
The value was inactive: 0.

With `CN(CC1CCN(CCc2ccc(Cl)cc2)CC1)C(=O)c1ccc(C(F)(F)F)cc1` [wact-304] + CNC(=O)O/N=C/C(C)(C)SC [aldicarb] as the compound, how does the “aldicarb interaction hit call” value read?
Its value is inactive: 0.

With `c1ccc(-c2noc(-c3cccs3)n2)cc1` [wact-7] + CNC(=O)O/N=C/C(C)(C)SC [aldicarb] as the compound, how does the “aldicarb interaction hit call” value read?
Its value is inactive: 0.

With `Cc1oc(-c2ccc(-c3ccccc3)cc2)nc1CN(C)C(C)C` [wact-337] + CNC(=O)O/N=C/C(C)(C)SC [aldicarb] as the compound, how does the “aldicarb interaction hit call” value read?
Its value is inactive: 0.

With `CCCCC1CCC(c2nc(-c3cccnc3)no2)CC1` (stereo unspecified) [wact-444] + CNC(=O)O/N=C/C(C)(C)SC [aldicarb] as the compound, how does the “aldicarb interaction hit call” value read?
The value was inactive: 0.

How did the “aldicarb interaction hit call” value turn out when `c1ccc(C2CCC(N3CCN(c4ccccc4)CC3)CC2)cc1` (stereo unspecified) [wact-48] + CNC(=O)O/N=C/C(C)(C)SC [aldicarb] was run?
The value was inactive: 0.

Which “aldicarb interaction hit call” value does the source give for `Clc1ccc(OCCN2CCNCC2)c(Cl)c1.O=C(O)C(=O)O` [wact-75] + CNC(=O)O/N=C/C(C)(C)SC [aldicarb] here?
The value was inactive: 0.

With `Cc1cc(OC(F)F)ccc1NC(=S)NCCc1ccccc1` [wact-543] + CNC(=O)O/N=C/C(C)(C)SC [aldicarb] as the compound, how does the “aldicarb interaction hit call” value read?
Its value is inactive: 0.

With `Clc1ccc(N2CCN(Cc3cccc(Cl)c3)CC2)cc1` [wact-216] + CNC(=O)O/N=C/C(C)(C)SC [aldicarb] as the compound, how does the “aldicarb interaction hit call” value read?
The value was inactive: 0.

With `O=C(CCCc1ccccc1)N1CCN(c2ccc(Cl)cc2)CC1` [wact-124] + CNC(=O)O/N=C/C(C)(C)SC [aldicarb] as the compound, how does the “aldicarb interaction hit call” value read?
The value was inactive: 0.

With `Br.Cc1nn2cc(-c3ccc(Cl)cc3)nc2s1` [wact-430] + CNC(=O)O/N=C/C(C)(C)SC [aldicarb] as the compound, how does the “aldicarb interaction hit call” value read?
The value was inactive: 0.

With `O=[N+]([O-])c1ccc(NC(=S)NCc2ccc(Cl)c(Cl)c2)cc1` [wact-109] + CNC(=O)O/N=C/C(C)(C)SC [aldicarb] as the compound, how does the “aldicarb interaction hit call” value read?
The value was inactive: 0.

For `Clc1ccc(N2CCN(/N=C\c3ccccn3)CC2)cc1` [wact-220] + CNC(=O)O/N=C/C(C)(C)SC [aldicarb], which “aldicarb interaction hit call” value is on record?
The value was inactive: 0.

For `Clc1ccc(N2CCC(NC3COc4ccccc4C3)CC2)cc1` (stereo unspecified) [wact-242] + CNC(=O)O/N=C/C(C)(C)SC [aldicarb], which “aldicarb interaction hit call” value is on record?
Its value is inactive: 0.

How did the “aldicarb interaction hit call” value turn out when `Brc1cccc(CSc2nnc(-c3ccco3)o2)c1` [wact-63] + CNC(=O)O/N=C/C(C)(C)SC [aldicarb] was run?
Its value is inactive: 0.

`CN(CC1CCCN(CCc2cccc(C(F)(F)F)c2)C1)C(=O)c1ccc(Cl)s1` (stereo unspecified) [wact-250] + CNC(=O)O/N=C/C(C)(C)SC [aldicarb] was tested. Which “aldicarb interaction hit call” value did it give?
The value was inactive: 0.

For `O=C(Nc1ccc(OC(F)F)cc1)c1ccc(F)cc1Cl` [wact-580] + CNC(=O)O/N=C/C(C)(C)SC [aldicarb], which “aldicarb interaction hit call” value is on record?
The value was inactive: 0.

Which “aldicarb interaction hit call” value does the source give for `CCC(C(=O)N1CCN(c2ccc([N+](=O)[O-])cc2)CC1)c1ccccc1` (stereo unspecified) [wact-50] + CNC(=O)O/N=C/C(C)(C)SC [aldicarb] here?
Its value is inactive: 0.

Which “aldicarb interaction hit call” value does the source give for `CCN(Cc1cccc2c1OCO2)CC1CCCN(CCc2cccc(F)c2)C1` (stereo unspecified) [wact-332] + CNC(=O)O/N=C/C(C)(C)SC [aldicarb] here?
The value was inactive: 0.

With `Fc1ccccc1NC(=S)Nc1ccc(Cl)c(Cl)c1` [wact-528] + CNC(=O)O/N=C/C(C)(C)SC [aldicarb] as the compound, how does the “aldicarb interaction hit call” value read?
Its value is inactive: 0.

Which “aldicarb interaction hit call” value does the source give for `C=CCN(CC=C)c1ncnc2ccc(Br)cc12.Cl` [wact-492] + CNC(=O)O/N=C/C(C)(C)SC [aldicarb] here?
Its value is inactive: 0.

`COc1cc(/C=N/c2ccc(-c3nc4ccc(C)cc4s3)cc2)ccc1OC(C)=O` [wact-383] + CNC(=O)O/N=C/C(C)(C)SC [aldicarb] was tested. Which “aldicarb interaction hit call” value did it give?
Its value is inactive: 0.

For `CC(C)(C)C(=O)N1CCN(c2ccc([N+](=O)[O-])cc2F)CC1` [wact-91] + CNC(=O)O/N=C/C(C)(C)SC [aldicarb], which “aldicarb interaction hit call” value is on record?
Its value is inactive: 0.

`CC(C)SCCCCCOc1ccc([N+](=O)[O-])cc1` [wact-593] + CNC(=O)O/N=C/C(C)(C)SC [aldicarb] was tested. Which “aldicarb interaction hit call” value did it give?
The value was inactive: 0.

For `Clc1ccc(Cl)c(-c2nc(-c3ccccn3)no2)c1` [wact-507] + CNC(=O)O/N=C/C(C)(C)SC [aldicarb], which “aldicarb interaction hit call” value is on record?
The value was inactive: 0.

Which “aldicarb interaction hit call” value does the source give for `O=c1cc(-c2ccccc2)nc(-c2ccccc2)o1` [wact-378] + CNC(=O)O/N=C/C(C)(C)SC [aldicarb] here?
Its value is inactive: 0.

With `CCCC(=O)N1CCN(c2cc(C)c([N+](=O)[O-])cc2F)CC1C` (stereo unspecified) [wact-497] + CNC(=O)O/N=C/C(C)(C)SC [aldicarb] as the compound, how does the “aldicarb interaction hit call” value read?
The value was inactive: 0.

`COc1ccc(-c2cc(-c3ccc(OC)cc3O)n[nH]2)cc1` [wact-601] + CNC(=O)O/N=C/C(C)(C)SC [aldicarb] was tested. Which “aldicarb interaction hit call” value did it give?
The value was inactive: 0.

With `CCSc1nnc(-c2ccc(Cl)cc2Cl)o1` [wact-4] + CNC(=O)O/N=C/C(C)(C)SC [aldicarb] as the compound, how does the “aldicarb interaction hit call” value read?
The value was inactive: 0.

`O=c1cc(C(Cl)(Cl)Cl)oc2ccc(Cl)cc12` [wact-424] + CNC(=O)O/N=C/C(C)(C)SC [aldicarb] was tested. Which “aldicarb interaction hit call” value did it give?
The value was inactive: 0.

Which “aldicarb interaction hit call” value does the source give for `FC(F)(F)c1ccc(-c2noc(CN3CCN(C4CCCC4)CC3)n2)cc1` [wact-336] + CNC(=O)O/N=C/C(C)(C)SC [aldicarb] here?
The value was inactive: 0.

How did the “aldicarb interaction hit call” value turn out when `CCCc1ccc(-c2nc(-c3cccnc3)no2)cc1` [wact-10] + CNC(=O)O/N=C/C(C)(C)SC [aldicarb] was run?
Its value is inactive: 0.

For `CCCCSc1ccc(NCCC(=O)c2ccco2)cc1` [wact-512] + CNC(=O)O/N=C/C(C)(C)SC [aldicarb], which “aldicarb interaction hit call” value is on record?
Its value is inactive: 0.

How did the “aldicarb interaction hit call” value turn out when `CCCc1nc(-c2ccc(-c3ccc(F)cc3)cc2)no1` [wact-390] + CNC(=O)O/N=C/C(C)(C)SC [aldicarb] was run?
Its value is active: 1.

How did the “aldicarb interaction hit call” value turn out when `O=C(Nc1ccc(-c2cccc(F)c2)cc1)C1CCCN(Cc2ccccn2)C1` (stereo unspecified) [wact-302] + CNC(=O)O/N=C/C(C)(C)SC [aldicarb] was run?
Its value is inactive: 0.

`COCCN(Cc1nc(-c2ccc(-c3ccccc3)cc2)oc1C)C(C)C` [wact-235] + CNC(=O)O/N=C/C(C)(C)SC [aldicarb] was tested. Which “aldicarb interaction hit call” value did it give?
The value was inactive: 0.

For `Cc1oc(-c2ccc(C(F)(F)F)cc2)nc1CN(C)C(C1CC1)C1CC1` [wact-330] + CNC(=O)O/N=C/C(C)(C)SC [aldicarb], which “aldicarb interaction hit call” value is on record?
Its value is inactive: 0.

With `O=C(NCCCNc1ccc(C(F)(F)F)cc1[N+](=O)[O-])c1ccc(F)cc1` [wact-117] + CNC(=O)O/N=C/C(C)(C)SC [aldicarb] as the compound, how does the “aldicarb interaction hit call” value read?
Its value is inactive: 0.

`O=[N+]([O-])c1ccc(-n2ccc3ccccc32)cc1` [wact-213] + CNC(=O)O/N=C/C(C)(C)SC [aldicarb] was tested. Which “aldicarb interaction hit call” value did it give?
Its value is inactive: 0.

With `O=C(NCc1ccccc1Cl)C(Cl)(Cl)Cl` [wact-482] + CNC(=O)O/N=C/C(C)(C)SC [aldicarb] as the compound, how does the “aldicarb interaction hit call” value read?
Its value is inactive: 0.

With `c1cnc(SCCCOc2ccc3ccccc3c2)nc1` [wact-525] + CNC(=O)O/N=C/C(C)(C)SC [aldicarb] as the compound, how does the “aldicarb interaction hit call” value read?
Its value is inactive: 0.

For `Nc1ccc2oc(-c3ccc(Cl)c(Cl)c3)nc2c1` [wact-386] + CNC(=O)O/N=C/C(C)(C)SC [aldicarb], which “aldicarb interaction hit call” value is on record?
Its value is inactive: 0.

With `CC1CN(c2ccc([N+](=O)[O-])cc2)CCN1C(=O)c1ccccc1F` (stereo unspecified) [wact-452] + CNC(=O)O/N=C/C(C)(C)SC [aldicarb] as the compound, how does the “aldicarb interaction hit call” value read?
The value was inactive: 0.

For `FC(F)(F)c1ccc(-c2noc(CN3CCC(OCc4ccccn4)CC3)n2)cc1` [wact-241] + CNC(=O)O/N=C/C(C)(C)SC [aldicarb], which “aldicarb interaction hit call” value is on record?
Its value is inactive: 0.

With `Clc1ccc(CSc2ncccn2)cc1Cl` [wact-92] + CNC(=O)O/N=C/C(C)(C)SC [aldicarb] as the compound, how does the “aldicarb interaction hit call” value read?
The value was inactive: 0.

`O=C(OCc1ccccc1)Sc1nc2ccccc2o1` [wact-396] + CNC(=O)O/N=C/C(C)(C)SC [aldicarb] was tested. Which “aldicarb interaction hit call” value did it give?
The value was inactive: 0.

How did the “aldicarb interaction hit call” value turn out when `C#CCSc1ncnc2c1cnn2-c1ccccc1` [wact-352] + CNC(=O)O/N=C/C(C)(C)SC [aldicarb] was run?
Its value is inactive: 0.

How did the “aldicarb interaction hit call” value turn out when `Cc1cc(I)ccc1OCCN1CCOCC1.Cl` [wact-559] + CNC(=O)O/N=C/C(C)(C)SC [aldicarb] was run?
The value was inactive: 0.

How did the “aldicarb interaction hit call” value turn out when `c1ccc(CCn2nnc3ccccc32)cc1` [wact-515] + CNC(=O)O/N=C/C(C)(C)SC [aldicarb] was run?
The value was inactive: 0.

`O=C(Nc1ccc(C(F)(F)F)cc1Cl)c1cccs1` [wact-145] + CNC(=O)O/N=C/C(C)(C)SC [aldicarb] was tested. Which “aldicarb interaction hit call” value did it give?
The value was inactive: 0.

Which “aldicarb interaction hit call” value does the source give for `CS(=O)(=O)c1ncc(CN2CCCC2c2ccc(F)cc2)n1CCCc1ccccc1` (stereo unspecified) [wact-233] + CNC(=O)O/N=C/C(C)(C)SC [aldicarb] here?
The value was inactive: 0.

How did the “aldicarb interaction hit call” value turn out when `O=C(NCCCCc1ccccc1)c1cccc(Br)c1` [wact-399] + CNC(=O)O/N=C/C(C)(C)SC [aldicarb] was run?
The value was inactive: 0.

How did the “aldicarb interaction hit call” value turn out when `Cc1cccc(C)c1OCc1cc(C(=O)N2CCC(c3ccncc3)CC2)no1` [dafadine-A] + CNC(=O)O/N=C/C(C)(C)SC [aldicarb] was run?
The value was inactive: 0.

With `O=C(Nc1ccc(OC(F)F)cc1)Nc1cccc(C(F)(F)F)c1` [wact-112] + CNC(=O)O/N=C/C(C)(C)SC [aldicarb] as the compound, how does the “aldicarb interaction hit call” value read?
Its value is inactive: 0.

— the supplement of paper PMC5393889
